The other results are listed elsewhere or left out.
Key:
Assay in all cases: log2 fold change, soluble protein after heating vs DMSO (PISA); higher = thermal stabilisation; K562 cells, 10 uM, 30 min; active = over 0.2 and 3.5 SD of the protein, either way, in both replicates (recomputed)
[1] = compound: NC(=O)Nc1cc(-c2cccc(F)c2)sc1C(=O)N[C@H]1CCCNC1
Procedure, shortened: (§1)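 K562 cells at 2×10^6 cells/mL were treated for 30 min with 10 μM compound, and aliquots were heated for 3 min over 48°C-58°C before pooling. Extraction used PBS with 0.5% NP-40 at 4°C, and soluble protein was the supernatant after 21,000xg for 90 min, measured by TMTpro 16plex LC-MS/MS with channel sums equalised. Thermal stability values, relative to control samples and from duplicates, are log2 fold changes.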

By UniProt entry, the sequences of proteins in these tests, tags left out. Where a name states a change or a piece, a line headed by the entry shows the natural chain unless it says otherwise.
UniProt Q96AN5: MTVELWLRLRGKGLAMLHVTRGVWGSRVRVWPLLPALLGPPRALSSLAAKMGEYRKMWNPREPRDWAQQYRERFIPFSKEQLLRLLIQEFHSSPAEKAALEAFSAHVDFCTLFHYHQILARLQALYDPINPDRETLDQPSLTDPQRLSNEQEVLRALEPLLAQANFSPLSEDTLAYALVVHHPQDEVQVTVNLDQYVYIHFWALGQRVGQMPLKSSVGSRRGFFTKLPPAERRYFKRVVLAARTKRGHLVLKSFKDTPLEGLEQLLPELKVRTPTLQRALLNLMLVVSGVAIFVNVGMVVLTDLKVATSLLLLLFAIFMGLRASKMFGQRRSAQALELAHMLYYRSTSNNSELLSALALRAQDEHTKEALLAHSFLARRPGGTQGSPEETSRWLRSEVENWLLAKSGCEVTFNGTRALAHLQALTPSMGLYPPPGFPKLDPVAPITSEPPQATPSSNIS
UniProt Q9P2C4: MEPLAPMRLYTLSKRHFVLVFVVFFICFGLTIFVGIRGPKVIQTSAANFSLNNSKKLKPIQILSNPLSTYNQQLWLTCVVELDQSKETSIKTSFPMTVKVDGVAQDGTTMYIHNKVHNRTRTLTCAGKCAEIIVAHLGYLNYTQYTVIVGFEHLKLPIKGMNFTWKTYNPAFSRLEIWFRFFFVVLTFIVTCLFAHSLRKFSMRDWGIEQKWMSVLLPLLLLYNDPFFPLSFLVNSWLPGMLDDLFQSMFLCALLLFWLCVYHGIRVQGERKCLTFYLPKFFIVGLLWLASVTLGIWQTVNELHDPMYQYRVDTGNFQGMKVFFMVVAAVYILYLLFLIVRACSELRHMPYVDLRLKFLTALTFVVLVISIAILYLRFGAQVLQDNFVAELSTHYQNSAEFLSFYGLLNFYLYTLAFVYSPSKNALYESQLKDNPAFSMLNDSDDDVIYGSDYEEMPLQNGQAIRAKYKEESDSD
UniProt Q96IK0: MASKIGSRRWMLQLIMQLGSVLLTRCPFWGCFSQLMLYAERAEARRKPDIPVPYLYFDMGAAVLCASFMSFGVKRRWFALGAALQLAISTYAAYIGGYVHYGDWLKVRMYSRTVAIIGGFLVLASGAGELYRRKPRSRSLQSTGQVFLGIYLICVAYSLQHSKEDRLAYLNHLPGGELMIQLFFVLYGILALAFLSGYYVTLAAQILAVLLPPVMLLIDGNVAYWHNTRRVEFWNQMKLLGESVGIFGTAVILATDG
UniProt Q9BXS4: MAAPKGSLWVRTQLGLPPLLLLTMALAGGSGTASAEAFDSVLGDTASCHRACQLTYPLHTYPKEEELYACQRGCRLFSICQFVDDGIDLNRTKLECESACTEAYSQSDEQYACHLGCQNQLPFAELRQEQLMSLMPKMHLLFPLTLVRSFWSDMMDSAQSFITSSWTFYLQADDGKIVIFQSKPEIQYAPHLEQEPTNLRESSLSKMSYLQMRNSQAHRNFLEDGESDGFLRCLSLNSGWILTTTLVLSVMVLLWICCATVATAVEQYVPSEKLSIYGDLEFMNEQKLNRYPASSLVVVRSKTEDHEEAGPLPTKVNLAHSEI
UniProt Q9BX74: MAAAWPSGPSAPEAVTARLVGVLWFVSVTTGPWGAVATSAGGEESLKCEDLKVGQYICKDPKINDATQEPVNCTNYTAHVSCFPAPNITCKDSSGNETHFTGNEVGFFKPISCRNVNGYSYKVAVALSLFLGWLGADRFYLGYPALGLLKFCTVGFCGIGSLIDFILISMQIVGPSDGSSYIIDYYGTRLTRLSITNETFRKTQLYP
UniProt Q5SNT2: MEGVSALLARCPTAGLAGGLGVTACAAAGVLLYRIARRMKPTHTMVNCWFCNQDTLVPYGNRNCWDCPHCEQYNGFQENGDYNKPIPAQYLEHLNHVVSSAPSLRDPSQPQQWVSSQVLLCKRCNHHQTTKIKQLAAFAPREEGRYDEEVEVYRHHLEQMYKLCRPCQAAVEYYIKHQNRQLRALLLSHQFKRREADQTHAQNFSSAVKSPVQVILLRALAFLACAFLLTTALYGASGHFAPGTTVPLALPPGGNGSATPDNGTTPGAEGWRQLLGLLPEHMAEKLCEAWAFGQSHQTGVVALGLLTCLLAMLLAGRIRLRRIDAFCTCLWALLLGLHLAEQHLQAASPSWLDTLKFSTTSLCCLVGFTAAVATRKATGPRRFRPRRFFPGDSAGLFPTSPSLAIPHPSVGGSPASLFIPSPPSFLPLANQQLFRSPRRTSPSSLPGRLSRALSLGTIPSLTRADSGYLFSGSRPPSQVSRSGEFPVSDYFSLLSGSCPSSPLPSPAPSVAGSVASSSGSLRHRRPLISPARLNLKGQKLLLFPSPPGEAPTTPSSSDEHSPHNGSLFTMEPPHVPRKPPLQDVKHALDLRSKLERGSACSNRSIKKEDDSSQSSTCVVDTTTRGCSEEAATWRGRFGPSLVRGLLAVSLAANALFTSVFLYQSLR
UniProt O95807: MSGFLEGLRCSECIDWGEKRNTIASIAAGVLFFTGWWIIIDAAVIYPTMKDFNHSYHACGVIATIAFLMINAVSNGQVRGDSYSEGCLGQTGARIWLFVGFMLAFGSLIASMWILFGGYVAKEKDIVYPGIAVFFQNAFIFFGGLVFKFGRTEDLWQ
UniProt Q5SWH9: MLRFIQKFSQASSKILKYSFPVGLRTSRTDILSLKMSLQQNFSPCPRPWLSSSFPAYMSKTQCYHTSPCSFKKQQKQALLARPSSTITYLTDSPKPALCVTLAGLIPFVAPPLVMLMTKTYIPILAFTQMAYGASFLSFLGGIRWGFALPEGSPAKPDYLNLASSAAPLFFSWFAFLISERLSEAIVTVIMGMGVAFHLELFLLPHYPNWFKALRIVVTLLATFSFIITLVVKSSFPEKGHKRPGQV
UniProt Q96B96: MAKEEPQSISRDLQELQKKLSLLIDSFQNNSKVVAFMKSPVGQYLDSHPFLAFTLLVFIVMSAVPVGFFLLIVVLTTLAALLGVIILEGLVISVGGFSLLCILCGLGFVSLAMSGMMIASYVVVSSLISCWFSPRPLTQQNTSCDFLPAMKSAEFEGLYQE

[2] = compound: NC(=O)c1cnc(N[C@@H]2CCCC[C@@H]2N)nc1Nc1cccc(-n2nccn2)c1
Procedure, shortened: as §1

[3] = compound: NC1(c2ccc(-c3nc4ccn5c(=O)[nH]nc5c4cc3-c3ccccc3)cc2)CCC1
Procedure, shortened: as §1

entinostat = compound: Nc1ccccc1NC(=O)c1ccc(CNC(=O)OCc2cccnc2)cc1 [entinostat]
Procedure, shortened: as §1

citarinostat = compound: O=C(CCCCCCNC(=O)c1cnc(N(c2ccccc2)c2ccccc2Cl)nc1)NO [citarinostat]
Procedure, shortened: as §1

silmitasertib = compound: O=C(O)c1ccc2c(c1)nc(Nc1cccc(Cl)c1)c1ccncc12 [silmitasertib]
Procedure, shortened: as §1

[4] = compound: c1cc(OCCN2CCCCC2)cc(-c2n[nH]c3ccc(-c4nnc[nH]4)cc23)c1
Procedure, shortened: as §1

[5] = compound: NCC(=O)Nc1ccc(-n2nc(C(F)(F)F)cc2-c2ccc3c(ccc4ccccc43)c2)cc1
Procedure, shortened: as §1

vorinostat = compound: O=C(CCCCCCC(=O)Nc1ccccc1)NO [vorinostat]
Procedure, shortened: as §1

[6] = compound: O=C1NC(=O)C(c2cnc3ccccn23)=C1c1cn2c3c(cc(F)cc13)CN(C(=O)N1CCCCC1)CC2
Procedure, shortened: as §1

Measured: log2 fold change

TMEM143 (UniProt Q96AN5)
inactive: [1] -0.022 | [2] -0.07 | [3] 0.286 | entinostat 0.03 | citarinostat 0.007 | silmitasertib -0.055 | [4] -0.054

TMEM181 (UniProt Q9P2C4)
inactive: [2] 0.194 | [3] -0.059 | [5] -0.06 | vorinostat 0 | citarinostat 0.053 | silmitasertib 0.029 | [4] 0.076

TMEM101 (UniProt Q96IK0)
inactive: [2] -0.155 | [3] -0.13 | [5] -0.167 | vorinostat -0.017 | citarinostat 0.129 | silmitasertib -0.002 | [4] -0.059

TMEM59 (UniProt Q9BXS4)
inactive: [2] 0.032 | [3] 0.118 | vorinostat -0.075 | silmitasertib -0.103

TM2D1 (UniProt Q9BX74)
inactive: [1] -0.3 | entinostat 0.121

TMEM201 (UniProt Q5SNT2)
inactive: [1] 0.063 | [3] 0.049 | entinostat -0.037 | vorinostat 0.041 | silmitasertib 0.021 | [6] 0.084

TMEM50A (UniProt O95807)
inactive: [2] 0.033 | [5] 0.108 | [6] -0.06

TMEM69 (UniProt Q5SWH9)
inactive: [2] -0.146 | [3] -0.156 | vorinostat 0.012 | citarinostat 0.017 | silmitasertib 0.003 | [4] -0.208

TMEM159 isoform 2 (UniProt Q96B96)
inactive: [1] 0.02 | [3] 0.07 | entinostat -0.098 | vorinostat -0.127 | silmitasertib -0.046 | [6] 0.007
